Assay results reported in US20040115837A1, “Methods of measuring the dissolution rate of an analyte in a non-aqueous liquid composition” (priority 2002, published 2004).

Experiment: Recovery of CCFA from drug release media spiked with 1:1 Placebo:Miglyol
Description: The accuracy of the methods of the present invention can be determined by measuring the transfer of an analyte from a non-aqueous liquid composition to an aqueous medium where the non-aqueous liquid composition is spiked with a known amount of analyte. The spiked non-aqueous liquid composition is equilibrated with the aqueous drug release medium by shaking or stirring, after which the amount of analyte in the aqueous dissolution medium is determined. The concentration of analyte which transferred to the aqueous medium is then compared to the concentration which would result, in theory, if 100% of the analyte had transferred. (e.g. under the assumptions that no pipetting, weighing errors or losses occur, that 100% of the analyte has dissolved and that 100% of the analyte is detected). Methods of the invention are accurate within the range of from about 70% to about 100%, preferably from about 90% to about 100%.
The recovery of CCFA bulk drug dissolved in drug release media spiked with a 1:1 mixture of placebo lot SFH-10 and Miglyol 812 was assessed by spiking 15 microliters of 1:1 Placebo:Miglyol into 75 mL of standard solutions of CCFA. This spiking level (15 microliters in 75 mL) corresponded to 100 microliters of the Placebo:Miglyol mixture per 500 mL of aqueous medium. This represented a two fold increase in the relative concentration of non-aqueous phase to that specified in the General Dissolution Procedure, thus representing a “worst case” or conservative approach to assessing the potential for negative bias (i.e. incomplete recovery) in the assay. Recovery was determined at six concentrations of CCFA ranging from about 1 to 15 ppm of CCFA in the aqueous phase. For a 200 mg/mL CCFA product, these concentrations corresponded to about 10-150% dissolved. For example, the General Dissolution Procedure specifies measuring the drug release from 50 microliters (0.050 mL) of a 1:1 dilution of CCFA suspension in Miglyol 812 into 500 mL of drug release medium. If 10% of the drug dissolved, the resultant concentration of CCFA in the aqueous phase would be: [formula]
After spiking, the mixtures were equilibrated by shaking on a platform shaker at room two hours. The spiked samples were filtered and the concentration of the termined using HPLC procedure described in the General Dissolution e results are summarized in Table 3.

SMILES: CO/N=C(\C(=O)N[C@@H]1C(=O)N2C(C(=O)O)=C(CSC(=O)c3ccco3)CS[C@H]12)c1csc(N)n1 [CCFA, ceftiofur crystalline free acid]
- mg/ml measured (No. 1, 0.001008 mg/ml added): 0.001018 mg/mL and 0.001011 mg/mL
- mg/ml measured (No. 2, 0.002520 mg/ml added): 0.002539 mg/mL and 0.002529 mg/mL
- mg/ml measured (No. 3, 0.005040 mg/ml added): 0.005031 mg/mL
- mg/ml measured (No. 4, 0.007540 mg/ml added): 0.007556 mg/mL and 0.007557 mg/mL
- mg/ml measured (No. 5, 0.010082 mg/ml added): 0.01005 mg/mL and 0.01007 mg/mL
- mg/ml measured (No. 6, 0.014982 mg/ml added): 0.01497 mg/mL and 0.01495 mg/mL

Where “and” joins values, the source holds several entries; their conditions need not be identical. Equal values may be shown once.
